Measurements from ChEMBL document CHEMBL2331307, “Modulation of cytochromes P450 with xanthone-based molecules: from aromatase to aldosterone synthase and steroid 11β-hydroxylase inhibition” (J Med Chem, 2013).
pIC50: −log10 of the molar value.

Molecular target: T1, Steroid 17-alpha-hydroxylase/17,20 lyase (Homo sapiens, UniProt P05093)
T1 sequence (P05093 whole entry): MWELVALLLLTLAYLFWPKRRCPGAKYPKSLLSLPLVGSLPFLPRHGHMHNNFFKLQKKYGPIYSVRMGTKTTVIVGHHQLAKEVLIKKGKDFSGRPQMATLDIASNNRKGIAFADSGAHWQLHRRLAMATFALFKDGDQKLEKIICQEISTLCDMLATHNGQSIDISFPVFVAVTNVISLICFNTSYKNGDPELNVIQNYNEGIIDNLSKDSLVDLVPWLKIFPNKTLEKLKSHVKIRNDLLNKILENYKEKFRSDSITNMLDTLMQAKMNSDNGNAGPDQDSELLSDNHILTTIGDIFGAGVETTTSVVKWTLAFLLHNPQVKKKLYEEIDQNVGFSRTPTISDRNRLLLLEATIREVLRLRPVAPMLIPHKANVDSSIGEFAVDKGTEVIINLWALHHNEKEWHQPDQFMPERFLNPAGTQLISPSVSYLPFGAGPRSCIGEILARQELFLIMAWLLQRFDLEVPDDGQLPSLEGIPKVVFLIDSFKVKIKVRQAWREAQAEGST

With N#Cc1ccc(C2CCCc3cncn32)cc1 (stereo unspecified) [FADROZOLE] as the compound, how does the pIC50 read?
The pIC50 was under 5.30.
